Measured values: article doi:10.1101/2023.09.07.556733
No constants are given. Whether binding was seen depends on the method and setting. Binding seen in cells or lysates may run through a third protein. Binding calls can cover weak binding; strength is not graded here.

Molecular target: Gαi2 (endogenous, cranial neural crest cells) (Xenopus tropicalis or Xenopus laevis (endogenous in cranial neural crest explants))
Test: proximity ligation

- binding: binds
B1: EB1 (protein, UniProt Q6P848 1-269)
chain: MAVNVYSTSVTSDNLSRHDMLAWINESLQLNLTKIEQLCSGSVYCQFMDMLFPGSVVLKKVKFQAKLEHEYIQNFKVLQAGFKKMGVDKIIPVDKLVKGKFQDNFEFVQWFKKFFDANYDGKDYDPVAARQGQESAPVPVLAAPVLNKPKKPLGSGNTAPQRTVPVQRTAVSNKPPAQGISKKPATVGNGDDESAELIQQINVLKITVEDLEKERDFYFGKLRNIELICQENEGESDPVLQRIIEILYATDEGFVIPDEGAPPEDQEEY
